Results published in PubChem BioAssay AID1671190 (National Center for Advancing Translational Sciences (NCATS), 2021).
About 6,100 (1.1%) of roughly 580,000 compounds were called active. Inconclusive means that the source gave no clear call. Such entries were picked first, then a sample of the others. The call rests on the fitted dose curve; in most records, active means well fitted inhibition curve with a large enough effect; inconclusive means small, poorly fitted or top-dose-only effect, or another doubt; inactive means no such curve, though single readings can be large or run the other way. Where the call is inconclusive, the potency comes from a doubtful curve fit.

Chains of the proteins cited; added tags and fusions are not shown. Lines headed by an entry give the natural chain unless they say otherwise; changes in a name come on top.
UniProt P18054: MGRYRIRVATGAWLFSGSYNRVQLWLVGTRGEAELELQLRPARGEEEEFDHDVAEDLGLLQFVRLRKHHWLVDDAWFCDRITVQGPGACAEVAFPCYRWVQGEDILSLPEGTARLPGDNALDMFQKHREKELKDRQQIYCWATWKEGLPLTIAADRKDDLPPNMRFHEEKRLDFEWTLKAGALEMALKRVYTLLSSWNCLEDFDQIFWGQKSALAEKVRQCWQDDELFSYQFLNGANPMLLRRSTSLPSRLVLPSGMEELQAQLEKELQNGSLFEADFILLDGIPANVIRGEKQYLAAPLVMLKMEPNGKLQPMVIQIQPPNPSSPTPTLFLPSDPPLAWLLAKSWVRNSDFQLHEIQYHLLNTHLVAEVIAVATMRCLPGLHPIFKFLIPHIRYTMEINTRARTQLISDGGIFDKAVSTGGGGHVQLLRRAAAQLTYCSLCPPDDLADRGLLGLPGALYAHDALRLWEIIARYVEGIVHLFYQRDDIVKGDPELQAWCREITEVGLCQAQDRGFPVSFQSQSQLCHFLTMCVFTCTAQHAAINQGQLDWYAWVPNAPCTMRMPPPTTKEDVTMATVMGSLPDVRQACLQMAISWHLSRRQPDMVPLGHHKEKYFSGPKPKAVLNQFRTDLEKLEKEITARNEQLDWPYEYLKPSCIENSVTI

molecular target: Polyunsaturated fatty acid lipoxygenase ALOX12 (Homo sapiens) (UniProt P18054); test: Primary qHTS assay for inhibitors of human arachidonate 12S-lipoxygenase (ALOX12): Round 2; conditions: purified 12hLO, xylenol orange hydroperoxide absorbance; activity change, negative = inhibition: at 108 µM (top of the series) unless noted
Outline: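 Purified human 12hLO at 150 nM in 25 mM Hepes, 0.01% Triton X-100, pH 7.0, preincubated 15 min at room temperature with compound. Reaction started with 40 uM arachidonic acid, 30 min at room temperature. Hydroperoxide measured by Fe-xylenol orange, 573/405 nm absorbance ratio.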
On the % scale 0 is the no-effect control and ±100 the full control effect; potency means the concentration at half of the fitted maximal effect.

Row | Compound | Potency | activity change, negative = inhibition
1 | O=Cc1cccc2[nH]ccc12 | inconclusive: 31.6 µM [inhibitor, partial curve, poor fit] | 
2 | CCCN1C(=O)/C(=C\C=C2\N(CC)c3ccccc3C2(C)C)SC1=S |  | inactive: -16.5%
3 | Cc1cc(C)n(-c2nc3ccccc3n3c(C)nnc23)n1 | inconclusive: 100 µM [inhibitor, single point] | 
4 | O=C(Nc1ccc2ccccc2c1)c1ccccc1[N+](=O)[O-] | inconclusive: 15.8 µM [inhibitor, full curve] | 
5 | COc1ccc(C(=O)N[C@@H]2CN(C(=O)NCc3ccccc3)CCC[C@H]2O)cc1 | inconclusive: 56.2 µM [inhibitor, partial curve, poor fit] | 
6 | CN1CCN(c2cc(=O)c3ccnc(-c4cccc(CO)c4)c3o2)CC1 | inconclusive: 56.2 µM [inhibitor, partial curve, poor fit] | 
7 | Cc1cccc(C)c1NC(=S)N1CCCCCC1 | inconclusive: 50.1 µM [inhibitor, partial curve, poor fit] | 
8 | Cc1ccc(-c2c(=O)n(O)c3ccccc3[n+]2[O-])cc1 | inconclusive: 3.98 µM [inhibitor, full curve, poor fit] | 
9 | O=C(NCc1ccccc1)c1cc2cc(Cl)ccc2[nH]1 |  | inactive: -23.5%
10 | COc1cccc(S(=O)(=O)Nc2ccc3c(c2)[C@H]2C[C@H](CC(=O)N[C@@H](C)c4ccccc4)O[C@H](CO)[C@H]2O3)c1 | inconclusive: 50.1 µM [inhibitor, partial curve, poor fit] | 
11 | O=c1[nH]c(C2CCN(S(=O)(=O)c3ccccc3C(F)(F)F)CC2)nc2c1nnn2Cc1ccccc1 |  | inactive: -21.6%
12 | O=C(CSc1nc(=O)n(Cc2cccnc2)c2c1CCC2)N1CCCC1 |  | inconclusive: -32.2% [inhibitor]
13 | CCN(CC)CCOc1cc2c(nn1)Oc1ccccc1N2C | inconclusive: 11.2 µM [inhibitor, full curve, poor fit] | 
14 | COCC(=O)N(Cc1ccc(OC)cc1)Cc1nc2ccccc2c(=O)[nH]1 |  | inactive: -1.22%
15 | COc1ccc2[nH]cc(CCNc3ccnc(-c4ccc5c(c4)OCO5)n3)c2c1 | active: 44.7 µM | 
16 | CCCCNS(=O)(=O)c1ccc2nc(SCC(=O)Nc3ccccc3)[nH]c2c1 |  | inactive: -24.4%
17 | Cc1ccc(C2NC(C(=O)O)CS2)cc1 (centres undefined) | inconclusive: 0.631 µM [inhibitor, full curve] | 
18 | Cc1cc(OCC(=O)Nc2ccc3c(c2)OCCO3)c2c(C)c(C)c(=O)oc2c1 | inconclusive: 100 µM [inhibitor, single point] | 
19 | Cc1ccc(-c2ncc(C(=O)Nc3cc(F)ccc3F)c(-c3ccncc3)n2)cc1 |  | inactive: -14.3%
20 | O=C1NC2(CCN(Cc3ccccc3)CC2)COc2ccccc21 | inconclusive: 70.8 µM [inhibitor, partial curve, poor fit] | 
21 | CNC(=O)c1c[nH]c2ccc(S(=O)(=O)Nc3cccc(SC)c3)cc2c1=O | inconclusive: 79.4 µM [inhibitor, partial curve, poor fit] | 
22 | Cc1ccc(C)c(N2CCN(Cc3nnnn3C3CCCCC3)CC2)c1 | inconclusive: 39.8 µM [inhibitor, partial curve, poor fit] | 

Row | Compound | Potency | activity change, negative = inhibition
23 | Clc1ccccc1OCCN1CCC(Cc2ccccc2)CC1 | inconclusive: 11.2 µM [inhibitor, full curve, poor fit] | 
24 | COc1ccc(C(=O)c2ccc(CC(=O)O)s2)cc1 |  | inactive: -10.6%
25 | CCN(CC)[C@H]1[C@@H]2OC[C@@H](O2)[C@@H](NCC2CCCCC2)[C@@H]1O |  | inactive: 6.59% [at 176 µM]
26 | CC(C)c1ccc(-c2nnn(Cc3cc(=O)n4ccsc4n3)n2)cc1 |  | inactive: -19.2%
27 | C/C(=N\Nc1ccc([N+](=O)[O-])cc1)c1ccco1 | inconclusive: 56.2 µM [inhibitor, partial curve, poor fit] | 
28 | CCCc1c(C(=O)OCC)[nH]c2c1C(=O)CC(c1ccc(OC)c(OC)c1)C2 (centres undefined) | inconclusive: 0.316 µM [inhibitor, full curve, poor fit] | 
29 | CC1(C(=O)Nc2ccc(F)c(Cl)c2)Cc2c(-c3ccc(C(N)=O)cc3)ccnc2O1 (centres undefined) | inconclusive: 100 µM [inhibitor, single point] | 
30 | O=C(NCCOC(=O)C1COc2ccccc2O1)C1COc2ccccc2O1 (centres undefined) |  | inactive: -4.65%
31 | CCCCCNC(=O)C(c1ccc(OC)cc1)n1c(=O)c(-c2cc3ccccc3[nH]2)nc2ccccc21 (centres undefined) | inconclusive: 44.7 µM [inhibitor, partial curve, poor fit] | 
32 | COC(=O)[C@]12CCCCC=C1N(Cc1ccc(Cl)cc1Cl)C(=O)[C@H](CC(=O)N1CCN(C(=O)c3ccco3)CC1)C2 | inconclusive: 2.24 µM [inhibitor, full curve, poor fit] | 
33 | CCCN1CCC(NC(=O)c2cccc(Oc3ccccc3)c2)CC1 |  | inactive: -5.87%
34 | CC(NC(=S)Nc1ccc(S(=O)(=O)N2CCOCC2)cc1)C1CC2CCC1C2 (centres undefined) | inconclusive: 56.2 µM [inhibitor, partial curve, poor fit] | 
35 | CC(C)(C)NC(=O)c1cccc(NC(=O)c2ccc(Cl)cc2Cl)c1 |  | inactive: 25.4%
36 | CCOP(=O)(OCC)c1nc(-c2ccco2)oc1NCc1ccc(F)cc1 |  | inactive: 10.3%
37 | Clc1ccc(CSc2c[nH]c3ccccc23)cc1 | inconclusive: 0.794 µM [inhibitor, full curve, poor fit] | 
38 | CC1=C(C(=O)OCc2ccc(C)cc2)C(c2ccccc2F)CC(=O)N1 (centres undefined) |  | inactive: 0%
39 | c1cncc(-c2ccc3ncnc(NCc4ccc5c(c4)OCO5)c3c2)c1 |  | inactive: -9.07%
40 | CC(/C=N/O)=N/N=C(C)\C=N\O |  | inactive: 7.97%
41 | Cc1ccc(-n2c(=S)[nH]c3sc4c(c3c2=O)CCc2ccccc2-4)cc1 | inconclusive: 50.1 µM [inhibitor, partial curve, poor fit] | 
42 | O=C1C[C@@H]2CCN(C(=O)c3ccccc3)C[C@@H]2CCN1CCc1cnc[nH]1 |  | inactive: 10.5% [at 176 µM]
43 | O=[N+]([O-])c1ccccc1CN1CCN(Cc2c[nH]c3ccccc23)CC1 | inconclusive: 3.16 µM [inhibitor, full curve, poor fit] | 
44 | COC(=O)CNc1n[nH]c(=S)[nH]c1=O | inconclusive: 39.8 µM [inhibitor, partial curve, poor fit] | 

Arranged by molecular weight (falling): part of the list above
Row | Compound | Potency | activity change, negative = inhibition
33 | CCCN1CCC(NC(=O)c2cccc(Oc3ccccc3)c2)CC1 |  | inactive: -5.87%
23 | Clc1ccccc1OCCN1CCC(Cc2ccccc2)CC1 | inconclusive: 11.2 µM [inhibitor, full curve, poor fit] | 
40 | CC(/C=N/O)=N/N=C(C)\C=N\O |  | inactive: 7.97%
